Experimental data taken from patent EP4289863A9.

Molecular target: monkey IL-36R (monkey)
Experiment: flow cytometry on CHO-K1 cells expressing monkey IL-36R

B1: humanized anti-IL-36R antibody 900527 (antibody, V domains shown)
VH: QVQLVQSGAEVKKPGASVKVSCKASGYTFTSSWMHWAKQAPGQGLEWIGEIHPNSAKTNYNQKFQGRVTMTRDTSISTAYMELSRLRSDDTAVYYCARVDYGKPWFAYWGQGTLVTVSS
VL: QIVLTQSPGTLSLSPGERATLSCRASSSVSSSYLHWYQQKPGQAPRLWIYSTSSRATGIPDRFSGSGSGTDFTLTISRLEPEDFATYYCQQFQSSPLTFGQGTKLEIK
binding: binds

These are yes or no findings as the source states them, for the method shown. Binding can be weak; no strength is given.
